From the supplement of paper PMC10849652
Some of the results follow.

The chains behind the UniProt entries cited, without tags or fusion partners. Where a name states a change or a piece, a line headed by the entry shows the natural chain unless it says otherwise.
UniProt Q96E29: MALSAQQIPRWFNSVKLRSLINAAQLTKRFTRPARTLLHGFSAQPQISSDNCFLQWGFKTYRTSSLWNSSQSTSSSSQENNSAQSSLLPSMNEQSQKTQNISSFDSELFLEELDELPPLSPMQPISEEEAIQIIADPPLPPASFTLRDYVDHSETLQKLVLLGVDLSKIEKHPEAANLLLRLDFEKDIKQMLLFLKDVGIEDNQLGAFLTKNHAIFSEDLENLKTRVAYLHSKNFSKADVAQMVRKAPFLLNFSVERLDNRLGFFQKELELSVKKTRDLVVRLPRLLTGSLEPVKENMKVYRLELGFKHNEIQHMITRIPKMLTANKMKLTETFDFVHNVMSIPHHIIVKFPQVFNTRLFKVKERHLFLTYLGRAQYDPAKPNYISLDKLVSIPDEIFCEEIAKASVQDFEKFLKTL
UniProt Q13496: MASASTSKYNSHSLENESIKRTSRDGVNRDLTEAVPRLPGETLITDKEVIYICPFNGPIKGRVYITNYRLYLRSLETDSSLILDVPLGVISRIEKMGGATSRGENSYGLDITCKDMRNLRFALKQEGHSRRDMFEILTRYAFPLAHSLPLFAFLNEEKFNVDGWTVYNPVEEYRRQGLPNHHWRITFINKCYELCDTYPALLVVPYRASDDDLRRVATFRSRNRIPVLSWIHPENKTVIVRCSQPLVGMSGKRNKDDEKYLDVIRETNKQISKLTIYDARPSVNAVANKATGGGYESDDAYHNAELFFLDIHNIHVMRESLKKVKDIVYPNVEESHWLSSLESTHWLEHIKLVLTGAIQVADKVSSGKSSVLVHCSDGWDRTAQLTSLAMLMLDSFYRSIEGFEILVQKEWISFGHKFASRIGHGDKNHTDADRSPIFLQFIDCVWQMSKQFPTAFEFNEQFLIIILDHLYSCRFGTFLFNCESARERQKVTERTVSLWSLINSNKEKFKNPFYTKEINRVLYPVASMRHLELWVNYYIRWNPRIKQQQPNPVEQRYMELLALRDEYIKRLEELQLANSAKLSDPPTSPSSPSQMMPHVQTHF
UniProt Q765P7: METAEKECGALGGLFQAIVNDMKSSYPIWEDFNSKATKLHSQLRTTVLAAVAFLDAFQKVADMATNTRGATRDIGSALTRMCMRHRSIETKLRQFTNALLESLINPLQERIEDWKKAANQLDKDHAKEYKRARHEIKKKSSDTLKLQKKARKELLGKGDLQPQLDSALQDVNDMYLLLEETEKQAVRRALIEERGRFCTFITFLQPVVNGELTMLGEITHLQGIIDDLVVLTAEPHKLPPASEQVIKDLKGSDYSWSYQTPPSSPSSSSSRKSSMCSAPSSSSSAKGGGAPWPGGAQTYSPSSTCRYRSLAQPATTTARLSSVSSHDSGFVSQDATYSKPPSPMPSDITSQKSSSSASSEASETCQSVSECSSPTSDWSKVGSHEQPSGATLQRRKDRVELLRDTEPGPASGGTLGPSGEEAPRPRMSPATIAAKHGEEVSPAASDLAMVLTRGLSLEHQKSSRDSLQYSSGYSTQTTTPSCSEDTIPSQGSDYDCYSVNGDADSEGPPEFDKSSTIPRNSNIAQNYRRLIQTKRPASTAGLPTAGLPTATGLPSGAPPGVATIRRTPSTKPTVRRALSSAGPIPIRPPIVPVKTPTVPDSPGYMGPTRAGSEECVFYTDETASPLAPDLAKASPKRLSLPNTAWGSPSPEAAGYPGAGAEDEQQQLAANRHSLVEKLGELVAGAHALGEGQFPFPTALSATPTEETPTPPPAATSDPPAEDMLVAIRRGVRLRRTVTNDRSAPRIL
UniProt Q68DK7: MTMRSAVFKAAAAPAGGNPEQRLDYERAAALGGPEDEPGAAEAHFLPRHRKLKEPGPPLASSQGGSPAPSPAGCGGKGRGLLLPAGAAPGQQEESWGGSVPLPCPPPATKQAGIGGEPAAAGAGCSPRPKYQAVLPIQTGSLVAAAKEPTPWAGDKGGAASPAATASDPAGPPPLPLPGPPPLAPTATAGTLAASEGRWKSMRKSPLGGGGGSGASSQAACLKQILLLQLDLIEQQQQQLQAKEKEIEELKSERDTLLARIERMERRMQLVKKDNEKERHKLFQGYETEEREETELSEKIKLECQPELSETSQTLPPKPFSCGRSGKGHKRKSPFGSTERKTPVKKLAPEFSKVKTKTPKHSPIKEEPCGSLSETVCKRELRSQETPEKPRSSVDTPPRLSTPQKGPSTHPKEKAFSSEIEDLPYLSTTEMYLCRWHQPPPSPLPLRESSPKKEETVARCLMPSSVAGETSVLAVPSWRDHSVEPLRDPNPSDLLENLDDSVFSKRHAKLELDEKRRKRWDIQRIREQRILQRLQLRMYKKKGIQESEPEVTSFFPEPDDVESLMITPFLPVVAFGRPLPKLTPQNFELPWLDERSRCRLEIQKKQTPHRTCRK
UniProt P13995: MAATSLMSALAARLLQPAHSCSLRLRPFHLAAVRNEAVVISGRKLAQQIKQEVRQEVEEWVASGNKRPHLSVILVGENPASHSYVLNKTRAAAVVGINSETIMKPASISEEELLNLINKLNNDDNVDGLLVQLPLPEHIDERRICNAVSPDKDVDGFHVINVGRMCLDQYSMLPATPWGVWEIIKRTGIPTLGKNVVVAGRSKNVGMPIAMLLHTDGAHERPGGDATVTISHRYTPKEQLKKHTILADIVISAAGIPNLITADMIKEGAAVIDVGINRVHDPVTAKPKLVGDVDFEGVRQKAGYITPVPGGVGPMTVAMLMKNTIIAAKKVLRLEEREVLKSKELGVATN
UniProt Q15800: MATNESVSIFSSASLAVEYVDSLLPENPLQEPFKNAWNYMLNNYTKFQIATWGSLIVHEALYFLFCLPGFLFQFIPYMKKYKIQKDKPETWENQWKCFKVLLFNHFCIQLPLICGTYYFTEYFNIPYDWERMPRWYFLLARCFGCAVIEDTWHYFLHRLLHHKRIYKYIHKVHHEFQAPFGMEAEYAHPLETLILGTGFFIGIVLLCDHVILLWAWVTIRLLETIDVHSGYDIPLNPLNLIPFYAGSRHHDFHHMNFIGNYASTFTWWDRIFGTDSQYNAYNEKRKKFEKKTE
UniProt Q13615: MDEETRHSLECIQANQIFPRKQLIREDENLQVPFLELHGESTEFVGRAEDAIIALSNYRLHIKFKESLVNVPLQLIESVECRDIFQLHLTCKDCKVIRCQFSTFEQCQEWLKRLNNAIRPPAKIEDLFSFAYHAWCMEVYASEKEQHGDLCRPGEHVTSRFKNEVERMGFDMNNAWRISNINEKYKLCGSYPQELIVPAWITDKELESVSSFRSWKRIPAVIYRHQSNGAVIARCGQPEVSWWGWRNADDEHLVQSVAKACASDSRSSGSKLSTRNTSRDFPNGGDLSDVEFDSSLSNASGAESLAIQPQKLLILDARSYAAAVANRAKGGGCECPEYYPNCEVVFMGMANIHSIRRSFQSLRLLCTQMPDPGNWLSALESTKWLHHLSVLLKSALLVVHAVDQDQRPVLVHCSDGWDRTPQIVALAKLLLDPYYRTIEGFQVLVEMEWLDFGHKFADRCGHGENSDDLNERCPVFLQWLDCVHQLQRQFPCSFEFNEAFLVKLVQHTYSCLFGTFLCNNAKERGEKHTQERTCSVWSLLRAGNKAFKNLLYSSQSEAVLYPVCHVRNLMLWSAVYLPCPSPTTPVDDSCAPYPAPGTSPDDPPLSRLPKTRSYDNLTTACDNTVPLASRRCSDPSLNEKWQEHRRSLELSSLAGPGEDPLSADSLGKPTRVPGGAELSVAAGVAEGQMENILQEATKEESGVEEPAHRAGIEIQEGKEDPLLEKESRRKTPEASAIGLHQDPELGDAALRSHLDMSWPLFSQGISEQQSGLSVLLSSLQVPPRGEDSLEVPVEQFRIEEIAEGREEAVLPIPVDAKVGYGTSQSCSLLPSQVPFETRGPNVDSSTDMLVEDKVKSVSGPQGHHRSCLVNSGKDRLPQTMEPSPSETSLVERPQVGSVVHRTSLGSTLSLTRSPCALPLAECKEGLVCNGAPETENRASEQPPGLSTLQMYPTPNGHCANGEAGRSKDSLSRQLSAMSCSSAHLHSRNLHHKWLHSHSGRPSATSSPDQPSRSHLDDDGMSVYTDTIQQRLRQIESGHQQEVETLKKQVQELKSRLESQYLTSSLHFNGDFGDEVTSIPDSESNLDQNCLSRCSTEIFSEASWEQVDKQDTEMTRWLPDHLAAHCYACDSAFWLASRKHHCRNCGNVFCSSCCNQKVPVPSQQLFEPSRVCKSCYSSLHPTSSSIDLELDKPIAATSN
UniProt Q13614, whole entry, looked up: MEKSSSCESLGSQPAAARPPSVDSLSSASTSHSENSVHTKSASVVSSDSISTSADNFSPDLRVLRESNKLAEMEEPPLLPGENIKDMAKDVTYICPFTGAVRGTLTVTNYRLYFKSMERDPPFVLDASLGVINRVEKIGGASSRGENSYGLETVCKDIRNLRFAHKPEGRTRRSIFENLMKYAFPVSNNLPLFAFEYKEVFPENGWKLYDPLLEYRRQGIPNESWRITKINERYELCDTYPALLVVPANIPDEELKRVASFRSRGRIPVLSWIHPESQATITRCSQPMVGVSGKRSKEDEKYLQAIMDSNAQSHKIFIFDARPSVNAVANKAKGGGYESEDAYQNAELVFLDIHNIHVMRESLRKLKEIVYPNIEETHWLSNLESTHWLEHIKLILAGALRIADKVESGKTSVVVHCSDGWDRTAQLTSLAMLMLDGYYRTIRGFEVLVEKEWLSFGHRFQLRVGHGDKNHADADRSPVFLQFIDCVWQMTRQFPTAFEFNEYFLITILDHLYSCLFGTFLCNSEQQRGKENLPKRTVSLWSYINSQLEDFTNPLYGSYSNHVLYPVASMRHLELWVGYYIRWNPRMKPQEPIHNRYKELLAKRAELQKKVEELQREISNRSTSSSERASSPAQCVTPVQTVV
UniProt Q13505: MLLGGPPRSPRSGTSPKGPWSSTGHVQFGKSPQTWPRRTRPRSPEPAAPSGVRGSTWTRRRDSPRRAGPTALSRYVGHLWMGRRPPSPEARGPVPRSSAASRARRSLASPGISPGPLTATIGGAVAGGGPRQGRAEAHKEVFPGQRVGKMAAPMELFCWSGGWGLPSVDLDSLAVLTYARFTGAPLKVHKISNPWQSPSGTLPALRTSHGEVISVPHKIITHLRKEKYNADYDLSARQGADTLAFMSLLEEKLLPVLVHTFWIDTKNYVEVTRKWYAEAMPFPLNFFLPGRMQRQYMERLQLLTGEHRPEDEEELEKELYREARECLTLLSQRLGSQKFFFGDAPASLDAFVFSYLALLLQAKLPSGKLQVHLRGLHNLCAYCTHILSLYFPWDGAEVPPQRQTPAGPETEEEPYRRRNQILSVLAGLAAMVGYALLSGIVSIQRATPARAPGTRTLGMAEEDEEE
UniProt Q9UBK8: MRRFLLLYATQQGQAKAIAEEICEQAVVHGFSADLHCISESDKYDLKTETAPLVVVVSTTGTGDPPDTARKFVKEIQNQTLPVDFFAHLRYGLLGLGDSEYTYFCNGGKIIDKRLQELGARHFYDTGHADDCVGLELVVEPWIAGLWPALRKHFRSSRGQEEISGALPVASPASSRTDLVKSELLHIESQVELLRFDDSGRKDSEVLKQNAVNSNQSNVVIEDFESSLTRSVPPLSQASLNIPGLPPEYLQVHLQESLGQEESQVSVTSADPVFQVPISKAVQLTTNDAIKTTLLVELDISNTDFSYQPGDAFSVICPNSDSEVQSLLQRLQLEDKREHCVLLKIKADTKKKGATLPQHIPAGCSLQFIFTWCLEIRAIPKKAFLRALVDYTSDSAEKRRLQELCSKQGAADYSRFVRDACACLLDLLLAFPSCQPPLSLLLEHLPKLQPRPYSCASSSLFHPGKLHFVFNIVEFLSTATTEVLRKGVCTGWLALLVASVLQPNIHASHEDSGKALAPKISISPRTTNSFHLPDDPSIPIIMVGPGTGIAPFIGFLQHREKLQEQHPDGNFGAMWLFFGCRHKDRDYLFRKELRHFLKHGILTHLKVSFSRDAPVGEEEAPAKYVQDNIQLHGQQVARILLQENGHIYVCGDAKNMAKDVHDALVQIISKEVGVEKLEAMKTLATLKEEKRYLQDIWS
UniProt P00156: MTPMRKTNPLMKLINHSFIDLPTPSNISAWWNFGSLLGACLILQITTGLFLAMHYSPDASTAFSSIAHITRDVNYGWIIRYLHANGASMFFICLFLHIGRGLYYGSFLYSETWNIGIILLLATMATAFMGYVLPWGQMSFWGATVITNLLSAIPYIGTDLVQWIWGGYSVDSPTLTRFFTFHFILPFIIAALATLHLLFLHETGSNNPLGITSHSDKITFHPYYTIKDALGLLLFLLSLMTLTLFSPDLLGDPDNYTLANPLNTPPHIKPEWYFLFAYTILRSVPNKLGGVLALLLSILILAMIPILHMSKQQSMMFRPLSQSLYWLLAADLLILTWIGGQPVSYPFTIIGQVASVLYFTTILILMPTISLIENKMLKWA

Columns and labels:
Assay in all cases: log2 fold change, soluble protein after heating vs DMSO (PISA); higher = thermal stabilisation; K562 lysate, 10 uM; active = over 0.2 and 3.5 SD of the protein, either way, in both replicates (recomputed)
[1] = compound: C#Cc1cccc(Nc2ncnc3cc(OCCOC)c(OCCOC)cc23)c1 [erlotinib]
Outline: (§1)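 Thermal stability, expressed as log-two fold change relative to solvent controls, is given from duplicates. Crude K562 extract in PBS pH 7.4 with 1 mM MgCl2, at 1 mg/mL protein, was treated with 10 μM compound for 30 min and heated in aliquots for 3 min across 48°C-58°C. After pooling, adjustment to 0.5% NP-40 at 4°C and centrifugation at 21,000xg for 90 min, supernatant protein was measured by TMTpro 16plex LC-MS/MS with channel sums equalised.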

[2] = compound: C/C(=N\NC(=O)C1=CC(=CC=C1)S(=O)(=O)N2CCOCC2)/C3=C(C=CC(=C3)Cl)O
Outline: as §1

[3] = compound: C1=CC(=CC=C1C2=NC3=C(N2)C=C(C=C3)C(=O)N)OC4=CC=C(C=C4)Cl
Outline: as §1

[4] = compound: C1=CC2=C(C=CC(=C2)/C=C\3/C(=O)NC(=NCC4=CC=CS4)S3)N=C1
Outline: as §1

[5] = compound: C1=CC2=NC=CN=C2C=C1/C=C/3\C(=O)NC(=O)S3
Outline: as §1

[6] = compound: C1=CC=C(C=C1)C2=NC(=C(N2)C3=CC=NC=C3)C4=CC(=C(C=C4)Cl)O
Outline: as §1

[7] = compound: C1=CC=C2C(=C1)C3=NNC4=CC=CC(=C43)C2=O
Outline: as §1

[8] = compound: C1CCN(C1)C(=O)NC2=CC=CC(=C2)NC3=NC=C(C(=N3)NCCC4=CN=CN4)Br
Outline: as §1

[9] = compound: C1CN(CCC1(CC2=CC=C(C=C2)Cl)N)C3=NC=NC4=C3C=CN4
Outline: as §1

[10] = compound: C1COCCN1CCN2C3=CC=CC=C3N=C2NC(=O)C4=CC(=CC=C4)[N+](=O)[O-] [IRAK-1-4 Inhibitor I]
Outline: as §1

[11] = compound: C=CC(=O)N1CCC[C@@H](n2nc(-c3ccc(Oc4ccccc4)cc3)c3c(N)ncnc32)C1 [ibrutinib]
Outline: as §1

[12] = compound: CC(=O)c1cnc2ccc(-c3cc(Cl)c(O)c(Cl)c3)nc2c1N[C@H]1CC[C@H](CN(C)C)CC1
Outline: as §1

[13] = compound: CC(C)(C)Cn1c(N)nc2ccc(-c3[nH]c(C(C)(C)C)nc3-c3ccc(F)cc3)nc21 [ralimetinib]
Outline: as §1

[14] = compound: CC(C)(O)CC(=O)NCCn1ccc2ncnc(Nc3ccc(Oc4cccc(C(F)(F)F)c4)c(Cl)c3)c21
Outline: as §1

[15] = compound: CC(C)C1=C2N=C(C=C(N2N=C1)NCC3=CC=CC=C3)NCCCCCCN
Outline: as §1

[16] = compound: CC1=C(C(CC(=O)N1)C2=CC=C(C=C2)C(F)(F)F)C(=O)NC3=C(C=C4C(=C3)C=NN4)F
Outline: as §1

[17] = compound: CC1=C(C2=C(C=C1)C(=O)C3=CC=CC=C3N2CCCN)C
Outline: as §1

[18] = compound: CC1=C(C=C(C=C1)NC(=O)C2=CC(=CC=C2)C(C)(C)C#N)NC3=CC4=C(C=C3)N=CN(C4=O)C
Outline: as §1

[19] = compound: CC1=C(C=C(C=C1)NC(=O)C2=CC(=CC=C2)N(C)C)NC(=O)C3=CC=C(C=C3)O
Outline: as §1

[20] = compound: CC1=CC=C(C=C1)SC2=C3C=C(SC3=CN=C2)C(=O)N
Outline: as §1

Measured: log2 fold change

MTERF3 (UniProt Q96E29)
inactive: [1] 0.016 | [2] 0.076 | [3] -0.007 | [4] 0.046 | [5] -0.047 | [6] 0.031 | [7] -0.048 | [8] 0.011 | [9] 0.191 | [10] -0.031 | [11] -0.003 | [12] -0.018 | [13] 0.004 | [14] -0.107 | [15] 0.094 | [16] -0.037 | [17] -0.004 | [18] -0.008 | [19] -0.046 | [20] -0.098

MTM1 (UniProt Q13496)
inactive: [1] -0.013 | [2] -0.01 | [3] 0.04 | [4] -0.022 | [5] -0.031 | [6] 0 | [7] 0.036 | [8] -0.022 | [9] -0.001 | [10] 0.011 | [11] 0.054 | [12] -0.002 | [13] 0.017 | [14] -0.015 | [15] -0.025 | [16] 0.022 | [17] 0.03 | [18] 0.002 | [19] -0.017 | [20] 0.008

MTSS2 (UniProt Q765P7)
inactive: [1] -0.025 | [2] -0.086 | [3] 0.027 | [4] 0.034 | [5] -0.012 | [6] 0.011 | [7] -0.057 | [8] -0.056 | [9] -0.009 | [10] -0.033 | [11] 0.054 | [12] 0 | [13] -0.026 | [14] -0.021 | [15] -0.025 | [16] 0.032 | [17] -0.067 | [18] -0.032 | [19] 0.028 | [20] 0.004

MSL1 (UniProt Q68DK7)
inactive: [1] 0.068 | [2] 0.036 | [3] 0.001 | [4] -0.034 | [5] 0.086 | [6] 0 | [7] -0.079 | [8] 0.05 | [9] -0.101 | [10] 0.07 | [11] -0.002 | [12] -0.022 | [13] -0.032 | [14] -0.126 | [15] 0.028 | [16] -0.106 | [17] -0.017 | [18] 0.07 | [19] -0.014 | [20] -0.062

MTHFD2 (UniProt P13995)
inactive: [1] -0.031 | [2] 0.001 | [3] 0 | [4] 0.032 | [5] -0.027 | [6] -0.016 | [7] -0.027 | [8] -0.063 | [9] 0.007 | [10] 0.02 | [11] -0.036 | [12] 0.01 | [13] 0.002 | [14] -0.019 | [15] 0.015 | [16] -0.03 | [17] 0.006 | [18] 0.02 | [19] 0.05 | [20] 0.009

MSMO1 (UniProt Q15800)
inactive: [1] 0.09 | [2] -0.075 | [3] 0.03 | [4] 0.028 | [5] 0.062 | [6] 0.003 | [7] -0.025 | [8] -0.002 | [9] -0.019 | [10] 0.082 | [11] -0.049 | [12] -0.004 | [13] -0.051 | [14] -0.035 | [15] 0.04 | [16] -0.032 | [17] -0.024 | [18] 0.004 | [19] 0 | [20] -0.015

MRPL50 (UniProt Q8N5N7)
inactive: [1] 0.059 | [2] -0.041 | [3] 0.031 | [4] 0.017 | [5] -0.029 | [6] -0.123 | [7] -0.025 | [8] -0.008 | [9] 0.094 | [10] 0.032 | [11] 0.094 | [12] -0.073 | [13] 0.021 | [14] -0.067 | [15] -0.038 | [16] -0.062 | [17] -0.002 | [18] 0.084 | [19] -0.041 | [20] 0.031

MRPS23 (UniProt Q9Y3D9)
inactive: [1] 0.013 | [2] 0.072 | [3] -0.015 | [4] 0.004 | [5] -0.02 | [6] 0.008 | [7] -0.041 | [8] 0.005 | [9] 0.038 | [10] -0.008 | [11] 0.035 | [12] 0.017 | [13] -0.038 | [14] 0.021 | [15] 0.036 | [16] -0.042 | [17] -0.029 | [18] -0.06 | [19] -0.017 | [20] 0.064

MTMR3 (UniProt Q13615)
inactive: [1] 0.031 | [2] 0.008 | [3] 0.033 | [4] -0.029 | [5] -0.002 | [6] -0.015 | [7] -0.007 | [8] -0.076 | [9] 0.037 | [10] -0.011 | [11] -0.031 | [12] -0.013 | [13] 0.059 | [14] 0.019 | [15] -0.02 | [16] 0.099 | [17] 0.02 | [18] 0.009 | [19] 0.013 | [20] -0.022

MTMR2 (UniProt Q13614)
inactive: [1] -0.003 | [2] 0.026 | [3] 0.007 | [4] -0.007 | [5] -0.024 | [6] -0.016 | [7] 0.017 | [8] -0.005 | [9] 0.019 | [10] -0.007 | [11] 0.016 | [12] 0.005 | [13] 0.011 | [14] -0.005 | [15] -0.004 | [16] 0.021 | [17] -0.03 | [18] 0.005 | [19] -0.008 | [20] -0.005

MTX1 (UniProt Q13505)
inactive: [1] -0.009 | [2] -0.035 | [3] 0.021 | [4] -0.028 | [5] 0.015 | [6] -0.009 | [7] -0.006 | [8] 0.005 | [9] 0.009 | [10] 0.024 | [11] 0.035 | [12] -0.015 | [13] -0.041 | [14] 0.021 | [15] -0.01 | [16] 0.024 | [17] 0.009 | [18] 0.028 | [19] 0.012 | [20] -0.003

MRPL47 (UniProt Q9HD33)
inactive: [1] 0.028 | [2] -0.011 | [3] 0.063 | [4] 0.122 | [5] 0.063 | [6] 0.015 | [7] 0.025 | [8] -0.026 | [9] 0.189 | [10] -0.063 | [11] 0.062 | [12] -0.069 | [13] 0.041 | [14] 0.016 | [15] 0.036 | [16] 0.052 | [17] -0.036 | [18] -0.047 | [19] -0.01 | [20] 0.07

MRPS28 (UniProt Q9Y2Q9)
inactive: [1] -0.019 | [2] 0.005 | [3] -0.032 | [4] 0.031 | [5] -0.009 | [6] -0.021 | [7] 0.003 | [8] 0.012 | [9] 0.039 | [10] -0.066 | [11] 0.031 | [12] -0.017 | [13] -0.017 | [14] 0.031 | [15] -0.035 | [16] 0.051 | [17] 0.001 | [18] -0.02 | [19] 0.013 | [20] -0.001

Pulled one by one from the entries so far, 2 records:
MRPL47 (UniProt Q9HD33)
inactive: [1] 0.028 | [2] -0.011 | [3] 0.063 | [4] 0.122 | [5] 0.063 | [6] 0.015 | [7] 0.025 | [8] -0.026 | [9] 0.189 | [10] -0.063 | [11] 0.062 | [12] -0.069 | [13] 0.041 | [14] 0.016 | [15] 0.036 | [16] 0.052 | [17] -0.036 | [18] -0.047 | [19] -0.01 | [20] 0.07

MTM1 (UniProt Q13496)
inactive: [1] -0.013 | [2] -0.01 | [3] 0.04 | [4] -0.022 | [5] -0.031 | [6] 0 | [7] 0.036 | [8] -0.022 | [9] -0.001 | [10] 0.011 | [11] 0.054 | [12] -0.002 | [13] 0.017 | [14] -0.015 | [15] -0.025 | [16] 0.022 | [17] 0.03 | [18] 0.002 | [19] -0.017 | [20] 0.008

Following part:

MTRR isoform 1 (UniProt Q9UBK8)
inactive: [1] 0.006 | [2] -0.046 | [3] 0.017 | [4] 0.007 | [5] -0.048 | [6] -0.012 | [7] -0.028 | [8] -0.031 | [9] 0.013 | [10] -0.012 | [11] 0.03 | [12] -0.081 | [13] 0.004 | [14] -0.013 | [15] 0.002 | [16] -0.01 | [17] -0.009 | [18] 0.027 | [19] -0.045 | [20] 0.039

MRPL40 (UniProt Q9NQ50)
inactive: [1] -0.003 | [2] 0.035 | [3] 0.017 | [4] 0.015 | [5] 0.005 | [6] 0 | [7] -0.079 | [8] 0.047 | [9] -0.028 | [10] 0.003 | [11] 0.016 | [12] 0.077 | [13] 0.034 | [14] -0.031 | [15] -0.005 | [16] -0.016 | [17] -0.116 | [18] 0.037 | [19] 0.016 | [20] -0.002

MT-CYB (UniProt P00156)
inactive: [1] 0.076 | [2] 0.141 | [3] 0.027 | [4] 0.024 | [5] 0.015 | [6] -0.229 | [7] 0.126 | [8] -0.105 | [9] 0.025 | [10] 0.028 | [11] 0.133 | [12] -0.055 | [13] 0.001 | [14] -0.064 | [15] -0.094 | [16] 0.03 | [17] -0.107 | [18] 0.039 | [19] -0.093 | [20] 0.198
